# Laboratory results taken from the supplement of paper PMC6411743.
# Sequences of proteins named here, by UniProt entry; tags and fusion partners are left off. A change or cut given only in a name is not applied to a line headed by its entry.
# UniProt O60613, whole entry: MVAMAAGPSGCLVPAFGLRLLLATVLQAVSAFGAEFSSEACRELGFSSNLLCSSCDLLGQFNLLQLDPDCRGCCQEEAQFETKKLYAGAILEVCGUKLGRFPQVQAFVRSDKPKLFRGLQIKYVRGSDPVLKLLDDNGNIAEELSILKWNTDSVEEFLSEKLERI
# UniProt O43837: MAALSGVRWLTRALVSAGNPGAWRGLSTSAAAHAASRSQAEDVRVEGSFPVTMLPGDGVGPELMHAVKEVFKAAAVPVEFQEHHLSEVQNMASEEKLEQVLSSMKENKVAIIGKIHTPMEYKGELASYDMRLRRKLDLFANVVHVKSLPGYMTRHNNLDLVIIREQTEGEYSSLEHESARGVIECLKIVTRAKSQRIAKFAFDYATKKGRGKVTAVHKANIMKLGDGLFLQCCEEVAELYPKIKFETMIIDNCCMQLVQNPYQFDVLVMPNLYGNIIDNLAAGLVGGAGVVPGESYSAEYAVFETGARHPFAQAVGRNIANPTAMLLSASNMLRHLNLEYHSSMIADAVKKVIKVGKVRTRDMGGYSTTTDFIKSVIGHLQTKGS
# UniProt Q14978: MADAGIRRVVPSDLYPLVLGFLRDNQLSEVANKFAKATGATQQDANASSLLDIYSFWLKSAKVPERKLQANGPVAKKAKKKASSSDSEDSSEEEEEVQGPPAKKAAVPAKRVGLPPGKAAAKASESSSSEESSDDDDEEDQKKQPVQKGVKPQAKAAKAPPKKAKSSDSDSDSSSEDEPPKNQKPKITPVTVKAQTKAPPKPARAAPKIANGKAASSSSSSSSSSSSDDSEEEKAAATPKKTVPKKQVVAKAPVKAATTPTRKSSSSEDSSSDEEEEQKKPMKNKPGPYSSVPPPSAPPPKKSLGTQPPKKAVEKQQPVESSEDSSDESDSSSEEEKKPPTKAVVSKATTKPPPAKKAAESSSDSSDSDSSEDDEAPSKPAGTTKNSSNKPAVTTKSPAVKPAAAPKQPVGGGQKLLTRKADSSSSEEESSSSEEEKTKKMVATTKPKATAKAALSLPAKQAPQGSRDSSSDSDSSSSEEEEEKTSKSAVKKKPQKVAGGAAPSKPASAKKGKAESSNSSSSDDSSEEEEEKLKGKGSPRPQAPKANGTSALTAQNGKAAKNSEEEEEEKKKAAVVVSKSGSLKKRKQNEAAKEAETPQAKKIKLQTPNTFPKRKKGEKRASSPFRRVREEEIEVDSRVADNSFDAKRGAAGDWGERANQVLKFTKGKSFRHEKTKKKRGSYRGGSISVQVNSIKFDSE
# UniProt Q8IY67: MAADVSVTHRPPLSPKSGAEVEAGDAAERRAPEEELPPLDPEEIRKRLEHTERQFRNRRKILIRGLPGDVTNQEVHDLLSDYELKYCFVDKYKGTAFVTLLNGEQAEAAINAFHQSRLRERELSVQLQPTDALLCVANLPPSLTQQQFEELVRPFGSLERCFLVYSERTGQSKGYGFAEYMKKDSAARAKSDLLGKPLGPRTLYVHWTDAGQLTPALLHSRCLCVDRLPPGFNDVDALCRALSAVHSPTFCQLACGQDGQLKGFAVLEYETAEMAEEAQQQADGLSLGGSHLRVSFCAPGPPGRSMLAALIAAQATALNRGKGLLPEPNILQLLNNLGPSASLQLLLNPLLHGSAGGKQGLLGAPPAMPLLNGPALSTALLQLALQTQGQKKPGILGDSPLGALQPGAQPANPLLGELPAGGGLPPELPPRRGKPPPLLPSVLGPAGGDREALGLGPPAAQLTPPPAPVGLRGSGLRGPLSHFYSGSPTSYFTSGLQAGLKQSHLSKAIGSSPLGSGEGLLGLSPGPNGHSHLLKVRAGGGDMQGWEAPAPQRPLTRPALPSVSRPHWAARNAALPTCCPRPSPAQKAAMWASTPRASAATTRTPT
# UniProt Q5VU43: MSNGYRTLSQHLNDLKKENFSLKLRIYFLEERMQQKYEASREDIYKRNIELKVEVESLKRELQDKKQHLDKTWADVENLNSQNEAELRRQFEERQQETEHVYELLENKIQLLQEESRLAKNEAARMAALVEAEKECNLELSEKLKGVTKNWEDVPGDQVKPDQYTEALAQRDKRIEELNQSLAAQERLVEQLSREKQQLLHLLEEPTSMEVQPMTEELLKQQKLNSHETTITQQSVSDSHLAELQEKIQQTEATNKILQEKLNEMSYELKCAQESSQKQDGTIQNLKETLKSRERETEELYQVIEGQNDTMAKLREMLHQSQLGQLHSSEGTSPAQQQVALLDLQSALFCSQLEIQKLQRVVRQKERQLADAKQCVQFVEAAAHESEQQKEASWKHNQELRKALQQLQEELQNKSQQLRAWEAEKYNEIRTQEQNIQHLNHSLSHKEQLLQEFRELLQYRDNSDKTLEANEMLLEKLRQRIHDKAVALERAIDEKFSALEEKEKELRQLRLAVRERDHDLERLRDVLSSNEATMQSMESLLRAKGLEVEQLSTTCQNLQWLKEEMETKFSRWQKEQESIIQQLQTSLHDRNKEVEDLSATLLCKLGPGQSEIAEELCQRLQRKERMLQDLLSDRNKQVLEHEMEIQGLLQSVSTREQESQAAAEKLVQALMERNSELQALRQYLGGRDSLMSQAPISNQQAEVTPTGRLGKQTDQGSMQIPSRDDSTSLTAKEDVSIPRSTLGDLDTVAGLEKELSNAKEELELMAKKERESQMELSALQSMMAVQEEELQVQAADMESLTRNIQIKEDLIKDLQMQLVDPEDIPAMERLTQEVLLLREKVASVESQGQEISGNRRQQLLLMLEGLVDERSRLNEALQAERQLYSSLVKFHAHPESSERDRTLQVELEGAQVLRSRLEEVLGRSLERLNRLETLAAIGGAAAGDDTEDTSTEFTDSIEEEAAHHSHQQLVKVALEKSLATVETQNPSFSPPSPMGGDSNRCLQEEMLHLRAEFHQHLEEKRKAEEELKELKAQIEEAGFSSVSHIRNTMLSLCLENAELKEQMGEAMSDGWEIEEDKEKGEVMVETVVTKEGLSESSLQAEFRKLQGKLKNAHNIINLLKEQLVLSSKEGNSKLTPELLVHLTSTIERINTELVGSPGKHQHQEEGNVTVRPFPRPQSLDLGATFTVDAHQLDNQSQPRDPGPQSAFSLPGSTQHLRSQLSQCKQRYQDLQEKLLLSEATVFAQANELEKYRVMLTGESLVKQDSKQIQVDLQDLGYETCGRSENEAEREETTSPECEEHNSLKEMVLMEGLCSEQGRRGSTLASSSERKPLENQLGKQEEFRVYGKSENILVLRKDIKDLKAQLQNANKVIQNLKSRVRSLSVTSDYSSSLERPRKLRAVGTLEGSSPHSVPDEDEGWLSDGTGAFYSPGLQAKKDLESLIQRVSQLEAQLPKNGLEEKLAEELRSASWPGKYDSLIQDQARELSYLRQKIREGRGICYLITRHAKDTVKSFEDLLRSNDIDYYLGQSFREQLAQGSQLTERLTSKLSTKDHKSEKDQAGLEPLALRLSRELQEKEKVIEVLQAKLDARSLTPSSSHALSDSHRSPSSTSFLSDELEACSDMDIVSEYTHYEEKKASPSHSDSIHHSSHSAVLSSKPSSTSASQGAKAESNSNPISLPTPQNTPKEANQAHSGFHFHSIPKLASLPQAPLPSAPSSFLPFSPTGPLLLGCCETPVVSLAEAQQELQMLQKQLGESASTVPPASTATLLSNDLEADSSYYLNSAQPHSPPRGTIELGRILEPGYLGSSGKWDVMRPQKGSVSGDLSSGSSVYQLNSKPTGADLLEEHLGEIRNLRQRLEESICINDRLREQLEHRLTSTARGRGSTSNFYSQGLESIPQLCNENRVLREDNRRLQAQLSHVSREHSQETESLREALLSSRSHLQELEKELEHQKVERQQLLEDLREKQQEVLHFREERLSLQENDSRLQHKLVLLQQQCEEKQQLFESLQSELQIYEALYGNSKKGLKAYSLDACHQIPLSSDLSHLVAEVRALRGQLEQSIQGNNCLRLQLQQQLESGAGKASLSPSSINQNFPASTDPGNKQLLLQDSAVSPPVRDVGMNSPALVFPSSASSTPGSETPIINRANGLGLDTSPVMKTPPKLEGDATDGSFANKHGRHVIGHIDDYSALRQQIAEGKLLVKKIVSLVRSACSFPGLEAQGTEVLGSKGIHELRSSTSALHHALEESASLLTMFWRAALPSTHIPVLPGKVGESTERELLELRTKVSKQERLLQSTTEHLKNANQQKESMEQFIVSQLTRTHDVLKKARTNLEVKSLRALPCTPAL
# UniProt Q6UWZ7: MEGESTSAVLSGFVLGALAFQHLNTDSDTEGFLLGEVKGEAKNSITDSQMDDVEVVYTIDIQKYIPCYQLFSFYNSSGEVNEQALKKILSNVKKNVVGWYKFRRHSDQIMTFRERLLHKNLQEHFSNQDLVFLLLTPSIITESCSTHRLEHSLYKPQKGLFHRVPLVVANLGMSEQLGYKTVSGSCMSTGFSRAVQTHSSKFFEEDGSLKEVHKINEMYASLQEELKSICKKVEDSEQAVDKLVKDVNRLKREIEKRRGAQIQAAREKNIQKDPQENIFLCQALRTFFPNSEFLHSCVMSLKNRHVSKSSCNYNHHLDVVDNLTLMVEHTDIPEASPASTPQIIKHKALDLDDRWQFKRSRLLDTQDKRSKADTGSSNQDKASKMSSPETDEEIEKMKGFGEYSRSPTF
# UniProt Q6UXD5: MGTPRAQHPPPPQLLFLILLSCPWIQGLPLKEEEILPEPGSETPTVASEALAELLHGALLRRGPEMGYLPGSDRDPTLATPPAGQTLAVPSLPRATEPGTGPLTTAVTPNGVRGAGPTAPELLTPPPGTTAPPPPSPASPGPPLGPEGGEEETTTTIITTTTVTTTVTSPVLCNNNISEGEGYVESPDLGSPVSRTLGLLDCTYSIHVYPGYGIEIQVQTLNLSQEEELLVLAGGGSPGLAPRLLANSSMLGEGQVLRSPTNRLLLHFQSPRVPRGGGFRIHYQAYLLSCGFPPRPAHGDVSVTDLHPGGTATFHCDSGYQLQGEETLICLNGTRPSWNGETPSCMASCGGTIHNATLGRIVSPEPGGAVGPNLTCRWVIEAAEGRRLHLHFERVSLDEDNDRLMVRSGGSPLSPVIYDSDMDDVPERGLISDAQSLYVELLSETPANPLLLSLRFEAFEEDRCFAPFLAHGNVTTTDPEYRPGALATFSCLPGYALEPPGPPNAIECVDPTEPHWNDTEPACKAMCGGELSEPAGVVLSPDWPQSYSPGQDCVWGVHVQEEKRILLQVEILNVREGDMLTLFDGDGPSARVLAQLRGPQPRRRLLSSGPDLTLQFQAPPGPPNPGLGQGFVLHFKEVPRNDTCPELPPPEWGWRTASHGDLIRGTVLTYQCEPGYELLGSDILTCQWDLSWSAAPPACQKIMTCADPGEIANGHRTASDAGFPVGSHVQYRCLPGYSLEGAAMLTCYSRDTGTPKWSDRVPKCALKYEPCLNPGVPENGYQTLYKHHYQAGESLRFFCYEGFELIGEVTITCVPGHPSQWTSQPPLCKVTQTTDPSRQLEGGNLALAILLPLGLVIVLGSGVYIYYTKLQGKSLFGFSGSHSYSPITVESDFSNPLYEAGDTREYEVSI
# UniProt Q7Z2E3: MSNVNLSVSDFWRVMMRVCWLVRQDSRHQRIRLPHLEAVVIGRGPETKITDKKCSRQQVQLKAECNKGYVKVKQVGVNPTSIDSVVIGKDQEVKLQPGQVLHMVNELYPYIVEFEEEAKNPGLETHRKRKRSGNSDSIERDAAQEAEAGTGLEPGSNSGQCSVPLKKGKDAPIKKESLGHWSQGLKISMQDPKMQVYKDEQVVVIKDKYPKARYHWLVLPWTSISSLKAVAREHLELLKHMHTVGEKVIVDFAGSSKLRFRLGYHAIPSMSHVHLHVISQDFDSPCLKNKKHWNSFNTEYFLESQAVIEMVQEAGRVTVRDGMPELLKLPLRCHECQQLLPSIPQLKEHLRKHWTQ
# UniProt Q9BVL4, whole entry: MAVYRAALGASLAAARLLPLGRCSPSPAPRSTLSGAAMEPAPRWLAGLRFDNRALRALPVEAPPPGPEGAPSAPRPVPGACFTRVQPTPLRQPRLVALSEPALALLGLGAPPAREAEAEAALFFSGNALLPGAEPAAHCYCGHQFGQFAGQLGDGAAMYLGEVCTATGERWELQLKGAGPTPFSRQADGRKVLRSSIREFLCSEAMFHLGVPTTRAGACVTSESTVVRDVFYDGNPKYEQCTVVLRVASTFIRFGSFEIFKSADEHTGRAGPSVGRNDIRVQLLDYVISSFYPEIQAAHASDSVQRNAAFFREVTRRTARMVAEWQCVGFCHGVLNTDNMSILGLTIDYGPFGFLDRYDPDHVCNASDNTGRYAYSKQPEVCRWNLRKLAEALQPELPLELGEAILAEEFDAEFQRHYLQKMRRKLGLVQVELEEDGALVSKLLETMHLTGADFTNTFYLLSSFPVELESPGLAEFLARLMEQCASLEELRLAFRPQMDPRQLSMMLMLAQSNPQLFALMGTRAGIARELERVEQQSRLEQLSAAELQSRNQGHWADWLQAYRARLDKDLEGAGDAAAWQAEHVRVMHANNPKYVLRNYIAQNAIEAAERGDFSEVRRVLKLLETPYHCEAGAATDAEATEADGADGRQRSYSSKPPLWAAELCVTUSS
# ± gives the standard deviation of the averaged measurements. The entries are a selection whose mix differs from that of the whole data set.
# Compound: Nc1ncnc2c1ncn2[C@@H]1O[C@H](COP(=O)(O)OP(=O)(O)NP(=O)(O)O)[C@@H](O)[C@H]1O [adenylyl imidodiphosphate]
# Test: NP40-soluble protein abundance relative to vehicle (solubility fold change) (ratio); higher = more soluble protein in presence of AMP-PNP
# Summary of the method: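 Jurkat crude lysate (Dounce-homogenised) was treated with eight concentrations from 0.1 to 10 mM for 10 min at room temperature, then 3 min at 37 °C. It was solubilised with 0.8% NP40 and benzonase (60 min, 4 °C) and ultracentrifuged, and the supernatant was TMT-labelled for LC-MS/MS. Intensities were vsn-normalised, and the value is the fold change against the NP40-processed vehicle per replicate, from three independent experiments.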
Target,NP40-soluble protein abundance (concentration: 1mM),NP40-soluble protein abundance (concentration: 2mM),NP40-soluble protein abundance (concentration: 4mM),NP40-soluble protein abundance (concentration: 6mM),NP40-soluble protein abundance (concentration: 8mM),NP40-soluble protein abundance (concentration: 10mM)
A0A0A0MSV9|A0A0G2JH37|A0A0G2JKZ1|A2AB90 and related entries (UniProt O15533),1.03 ± 0.076,1.03 ± 0.047,1.07 ± 0.064,1.01 ± 0.022,1.03 ± 0.046,1.01 ± 0.073
A0A087X1G7|A0A0B4J1S4|O60613 (UniProt O60613),1.02 ± 0.022,1.02 ± 0.02,1 ± 0.013,1.01 ± 0.014,1 ± 0.028,1.003 ± 0.0065
A0A0A0MR66|P98175-4 (UniProt P98175),1.04 ± 0.027,1.1 ± 0.027,1.09 ± 0.024,1.13 ± 0.062,1.12 ± 0.066,1.21 ± 0.062
A0A0A0MQS0|A8MW92 and related entries (UniProt A8MW92),0.995 ± 0.044,1.11 ± 0.088,1.1 ± 0.041,1.15 ± 0.036,1.17 ± 0.081,1.26 ± 0.019
A0A087WZN1|O43837 (UniProt O43837),0.958 ± 0.032,0.918 ± 0.037,0.938 ± 0.038,0.99 ± 0.061,0.978 ± 0.059,0.961 ± 0.042
A0A0A0MRJ6|C9J0F2 and related entries (UniProt P22061),0.995 ± 0.032,0.979 ± 0.029,0.965 ± 0.063,0.98 ± 0.046,0.976 ± 0.041,0.934 ± 0.069
A0A087X243|P09211 (UniProt P09211),0.979 ± 0.033,0.927 ± 0.045,0.95 ± 0.015,0.986 ± 0.035,0.993 ± 0.024,0.969 ± 0.039
A0A087WWP4|Q96T37 and related entries (UniProt Q96T37),1.04 ± 0.015,1.08 ± 0.019,1.13 ± 0.02,1.15 ± 0.021,1.17 ± 0.04,1.23 ± 0.033
A0A0A0MRM9|Q14978-2|Q14978 and related entries (UniProt Q14978),1.07 ± 0.025,1.18 ± 0.098,1.12 ± 0.03,1.26 ± 0.051,1.2 ± 0.053,1.29 ± 0.09
A0A087WZ13|E9PAU2 (UniProt Q8IY67),1.08 ± 0.052,1.05 ± 0.03,1.06 ± 0.04,1.047 ± 0.0051,1.04 ± 0.011,1.03 ± 0.012
A0A0A0MRM1|E9PL24 and related entries (UniProt Q5VU43),0.9748 ± 0.0094,1.04 ± 0.033,0.969 ± 0.012,0.965 ± 0.037,0.9437 ± 0.0022,0.952 ± 0.039
A0A087X188|Q9UBW5 (UniProt Q9UBW5),0.999 ± 0.04,1.06 ± 0.12,1.02 ± 0.053,1.04 ± 0.012,1.02 ± 0.036,1.05 ± 0.011
A0A0A0MTN0|Q13617 and related entries (UniProt Q13617),0.947 ± 0.02,0.896 ± 0.089,0.9136 ± 0.0062,0.935 ± 0.015,0.92 ± 0.018,0.894 ± 0.033
A0A087X011|E9PES4 and related entries (UniProt Q9Y496),0.989 ± 0.019,0.988 ± 0.012,0.982 ± 0.033,0.9603 ± 0.009,0.951 ± 0.021,0.945 ± 0.031
A0A0C4DH01|Q9NVU0 and related entries (UniProt Q9NVU0),1 ± 0.058,1.02 ± 0.019,1.06 ± 0.052,1.03 ± 0.063,1.02 ± 0.064,1.07 ± 0.081
A0A0C4DGZ1|Q8N5P1 (UniProt Q8N5P1),1 ± 0.034,1.11 ± 0.1,1.07 ± 0.075,1.14 ± 0.049,1.18 ± 0.025,1.25 ± 0.091
A0A087WWH3|Q9NZM4 and related entries (UniProt Q9NZM4),1.02 ± 0.016,1.04 ± 0.021,1.03 ± 0.023,1.009 ± 0.0024,1.009 ± 0.0079,1.05 ± 0.028
A0A0C4DGQ5|K7EIV0 and related entries (UniProt P04632),1.04 ± 0.036,1.05 ± 0.041,1.01 ± 0.022,1.02 ± 0.035,1.02 ± 0.024,1.03 ± 0.025
A0A087WXK1|D6REL5 and related entries (UniProt Q6UWZ7),0.992 ± 0.011,0.998 ± 0.014,1.01 ± 0.021,1 ± 0.053,1.01 ± 0.031,0.968 ± 0.015
A0A0C4DFU2|P04179 and related entries (UniProt P04179),0.928 ± 0.048,0.934 ± 0.027,0.946 ± 0.063,1.09 ± 0.12,1.07 ± 0.099,1.05 ± 0.086
A0A087WYL5|Q6UXD5-3|Q6UXD5-5|Q6UXD5-6|Q6UXD5 and related entries (UniProt Q6UXD5),1 ± 0.027,1.01 ± 0.036,0.994 ± 0.034,0.984 ± 0.012,0.994 ± 0.047,0.998 ± 0.044
A0A0A0MSJ9|Q15283 and related entries (UniProt Q15283),1.02 ± 0.043,0.947 ± 0.1,0.984 ± 0.062,0.962 ± 0.0078,0.962 ± 0.034,0.951 ± 0.041
A0A087WWS1|Q96FV9 (UniProt Q96FV9),1.35 ± 0.15,1.52 ± 0.22,1.64 ± 0.29,1.86 ± 0.46,1.96 ± 0.56,2.2 ± 0.76
MEX3A (UniProt A1L020),1.03 ± 0.017,1.02 ± 0.015,1.01 ± 0.018,0.997 ± 0.026,0.988 ± 0.026,1 ± 0.044
A0AVT1,0.978 ± 0.024,0.919 ± 0.09,0.959 ± 0.025,0.961 ± 0.014,0.949 ± 0.02,0.92 ± 0.023
A0A0A0MRW7|Q7Z2E3 and related entries (UniProt Q7Z2E3),1.01 ± 0.013,1.03 ± 0.022,1.077 ± 0.0052,1.05 ± 0.0071,1.08 ± 0.042,1.12 ± 0.033
A0A0A0MRE5|Q9ULH1 and related entries (UniProt Q9ULH1),0.98 ± 0.022,1.005 ± 0.0039,0.999 ± 0.024,0.991 ± 0.022,0.969 ± 0.021,0.984 ± 0.039
A0A087WXR7|Q5TBB1 (UniProt Q5TBB1),1.02 ± 0.013,1.02 ± 0.075,0.986 ± 0.019,1.07 ± 0.067,1.06 ± 0.033,1.06 ± 0.025
A0A087X0Q9|Q9BVL4 (UniProt Q9BVL4),1.037 ± 0.0092,0.9994 ± 0.0072,1.04 ± 0.03,0.986 ± 0.017,0.99 ± 0.028,0.98 ± 0.024

# Record cards (already shown).
# A0A087X1G7|A0A0B4J1S4|O60613 (UniProt O60613) as listed: NP40-soluble protein abundance (concentration: 1mM): 1.02 ± 0.022; NP40-soluble protein abundance (concentration: 2mM): 1.02 ± 0.02; NP40-soluble protein abundance (concentration: 4mM): 1 ± 0.013; NP40-soluble protein abundance (concentration: 6mM): 1.01 ± 0.014; NP40-soluble protein abundance (concentration: 8mM): 1 ± 0.028; NP40-soluble protein abundance (concentration: 10mM): 1.003 ± 0.0065
# A0A087X0Q9|Q9BVL4 (UniProt Q9BVL4) as listed: NP40-soluble protein abundance (concentration: 1mM): 1.037 ± 0.0092; NP40-soluble protein abundance (concentration: 2mM): 0.9994 ± 0.0072; NP40-soluble protein abundance (concentration: 4mM): 1.04 ± 0.03; NP40-soluble protein abundance (concentration: 6mM): 0.986 ± 0.017; NP40-soluble protein abundance (concentration: 8mM): 0.99 ± 0.028; NP40-soluble protein abundance (concentration: 10mM): 0.98 ± 0.024
